Data taken from US20240041987A1 (COLZYX AB, priority 2020, published 2024).

How the values were obtained:
peptide made by a vendor = settings: whole synthesis, quantitative chromatography, LC-MS, acetate
peptide synthesis = settings: whole synthesis, quantitative chromatography, LC-MS, acetate

Row | Sequence | final HPLC purity (peptide made by a vendor) [%] | final purity (method not given) (peptide synthesis) [%]
1 | GVRPDGFAHIRDFVSRIVRRLNIGPSKV (GVR28) | >95 | 96
2 | SFVARNTFKRVRNGFLMRKVAVFFSNTPTRASP (SFV33) | >95 | 96

End groups of sequences in plain letters are not given here.
